Experimental data: PubChem BioAssay AID504774 (Drosophila RNAi Screening Center, 2011)

- Aim: 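Genes required for cells to withstand methyl methanesulphonate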 (primary screen)
- System: Drosophila Kc167 cells
- Reagents: long dsRNA against Drosophila genes, about 0.25 µg dsRNA per well
- Timing: about 6 days: 3 days knock-down, then 3 days with or without MMS
- Conditions: methyl methanesulphonate 0.004% (w/v) for 3 days after knock-down
- Read-out: 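Viability in wells given MMS, read as ATP luminescence, normalised by quantiles plate by plate and averaged across replicates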
- Scale: mean viability with MMS: higher = more surviving cells after MMS
The deposit covers about 23,000 reagents; below is an unselected part of those that have a named target and a result. 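Values are quantile-normalised luminescence on an arbitrary scale; higher means more cells surviving MMS.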 A plus sign joins genes that one reagent is predicted to hit. Further read-outs or replicates are left out here.

| target gene | PubChem SID | mean viability with MMS |
| --- | --- | --- |
| Adgf-B | SID104190360 | 3.59e6 |
| Sgs5bis | SID104196055 | 3.29e6 |
| CG31019 | SID104193786 | 3.41e6 |
| CG8617 | SID104187015 | 3.42e6 |
| CCT2 | SID104198207 | 3.35e6 |
| Top3alpha | SID104183252 | 3.54e6 |
| fan | SID104190722 | 3.51e6 |
| Grip75 | SID104183129 | 3.51e6 |
| Diedel | SID104194109 | 3.61e6 |
| CG4701 | SID104181744 | 3.34e6 |
| Pabp2 | SID104187293 | 2.83e6 |
| CG32985 | SID104182426 | 3.54e6 |
| CG13949 | SID104180159 | 3.60e6 |
| CG7368 | SID104190618 | 3.47e6 |
| CG7368 | SID104202180 | 3.40e6 |
| Arpc5 | SID104180522 | 3.44e6 |
| osa | SID104196814 | 3.47e6 |
| Coq7 + shf | SID104198240 | 3.73e6 |
| Isha | SID104184248 | 3.57e6 |
| Pvf2 | SID104180760 | 1.69e6 |
| Pvf2 | SID104182075 | 3.21e6 |
| CG1304 | SID104200286 | 3.56e6 |
| flip | SID104192118 | 3.62e6 |
| Usp39 | SID104199824 | 3.45e6 |
| CG11291 | SID104183889 | 3.36e6 |
| CG9300 | SID104190856 | 3.44e6 |
| sr | SID104193076 | 3.51e6 |
| sr | SID104196859 | 3.12e6 |
| CG11345 | SID104187968 | 3.51e6 |
| CG9062 | SID104187119 | 3.61e6 |
| gek | SID104184480 | 3.78e6 |
| CG13747 | SID104186210 | 3.59e6 |
| CG3652 | SID104180416 | 3.65e6 |
| Ugt36A1 + CG15418 | SID104180224 | 3.81e6 |
| Lcp3 | SID104187249 | 3.55e6 |
| CR14033 | SID104182150 | 3.73e6 |
| CG15912 | SID104197897 | 3.46e6 |
| CG5070 | SID104199724 | 3.46e6 |
| Non3 | SID104196151 | 3.50e6 |
| CG6901 | SID104195921 | 3.49e6 |
| fusl | SID104182143 | 3.61e6 |
| bur | SID104182955 | 3.78e6 |
| CG10560 | SID104194048 | 3.31e6 |
| Rab32 | SID104184938 | 3.45e6 |
| Rab32 | SID104187314 | 3.55e6 |
| sqh | SID104198629 | 3.36e6 |
| CG6429 | SID104186778 | 3.46e6 |
| schuy | SID104190076 | 3.49e6 |
| Pnn | SID104196207 | 3.52e6 |
| Hydr1 | SID104186855 | 1.79e6 |
| CG14277 | SID104182172 | 3.85e6 |
| CG30479 | SID104186527 | 3.71e6 |
| Tbc1d15-17 | SID104180105 | 3.31e6 |
| TwdlE | SID104182184 | 3.64e6 |
| Cyp318a1 | SID104199576 | 3.57e6 |
| Coq9 | SID104202271 | 3.56e6 |
| tst + CG10375 | SID104194029 | 3.39e6 |
| Delta | SID104196440 | 3.75e6 |
| CG14811 | SID104197754 | 3.68e6 |
| Ugt49B2 | SID104195841 | 3.63e6 |
| Prosbeta4R1 | SID104180294 | 3.41e6 |
| Muc68Ca | SID104190104 | 1.74e6 |
| Muc68Ca | SID104190105 | 3.52e6 |
| CG12825 | SID104185966 | 3.73e6 |
| CG17264 | SID104180292 | 3.36e6 |
| tei | SID104187408 | 3.44e6 |
| DnaJ-1 | SID104190937 | 3.42e6 |
| mRpS25 | SID104199390 | 3.68e6 |

7 neighbouring entries from above, quoted:
| target gene | PubChem SID | mean viability with MMS |
| --- | --- | --- |
| Coq7 + shf | SID104198240 | 3.73e6 |
| Isha | SID104184248 | 3.57e6 |
| Pvf2 | SID104180760 | 1.69e6 |
| Pvf2 | SID104182075 | 3.21e6 |
| CG1304 | SID104200286 | 3.56e6 |
| flip | SID104192118 | 3.62e6 |
| Usp39 | SID104199824 | 3.45e6 |
